Results from paper PMC6858314.
Results are given in words; binding and its absence hold for the method and conditions named. For some of these results: Binding seen in cells or lysates may run through a third protein. Some binding calls cover weakened binding; strength is not graded here.

Amino acid sequences for entries named in this document (tags omitted). Residues count along the entry.
UniProt O60235: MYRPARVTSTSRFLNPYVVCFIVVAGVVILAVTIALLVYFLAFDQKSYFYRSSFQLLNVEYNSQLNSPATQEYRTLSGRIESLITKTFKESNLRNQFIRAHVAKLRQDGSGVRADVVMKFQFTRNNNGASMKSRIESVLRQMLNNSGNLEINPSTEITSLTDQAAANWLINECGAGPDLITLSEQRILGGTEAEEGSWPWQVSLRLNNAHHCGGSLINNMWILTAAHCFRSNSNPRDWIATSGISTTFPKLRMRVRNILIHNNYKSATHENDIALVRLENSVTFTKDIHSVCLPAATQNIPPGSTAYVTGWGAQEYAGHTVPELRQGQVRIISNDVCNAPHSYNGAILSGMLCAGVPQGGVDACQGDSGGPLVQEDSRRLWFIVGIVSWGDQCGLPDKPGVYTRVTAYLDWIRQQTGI
UniProt Q9NPH3, residues 21-570: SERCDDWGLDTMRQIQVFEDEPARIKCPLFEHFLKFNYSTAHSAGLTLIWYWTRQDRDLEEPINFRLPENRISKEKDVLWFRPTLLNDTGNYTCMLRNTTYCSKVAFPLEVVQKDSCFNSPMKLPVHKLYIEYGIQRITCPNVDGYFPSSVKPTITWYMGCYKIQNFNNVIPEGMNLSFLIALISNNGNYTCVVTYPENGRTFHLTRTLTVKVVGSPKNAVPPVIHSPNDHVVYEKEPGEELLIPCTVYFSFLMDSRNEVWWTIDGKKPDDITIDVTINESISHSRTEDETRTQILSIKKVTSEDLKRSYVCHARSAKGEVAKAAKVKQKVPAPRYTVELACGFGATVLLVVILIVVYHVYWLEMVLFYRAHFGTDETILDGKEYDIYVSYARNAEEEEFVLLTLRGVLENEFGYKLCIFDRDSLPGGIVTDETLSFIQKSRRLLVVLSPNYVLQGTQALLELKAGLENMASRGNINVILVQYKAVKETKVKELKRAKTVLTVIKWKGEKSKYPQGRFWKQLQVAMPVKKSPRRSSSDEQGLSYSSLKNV
UniProt P25445, residues 26-335: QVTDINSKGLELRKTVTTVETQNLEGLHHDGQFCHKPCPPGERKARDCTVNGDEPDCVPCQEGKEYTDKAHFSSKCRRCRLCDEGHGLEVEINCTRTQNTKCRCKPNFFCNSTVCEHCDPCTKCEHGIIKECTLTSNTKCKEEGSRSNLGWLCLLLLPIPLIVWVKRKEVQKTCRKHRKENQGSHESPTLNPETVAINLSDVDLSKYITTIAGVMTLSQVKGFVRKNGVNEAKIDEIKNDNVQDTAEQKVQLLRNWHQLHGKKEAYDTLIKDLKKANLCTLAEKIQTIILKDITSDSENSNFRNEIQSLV
UniProt P17677: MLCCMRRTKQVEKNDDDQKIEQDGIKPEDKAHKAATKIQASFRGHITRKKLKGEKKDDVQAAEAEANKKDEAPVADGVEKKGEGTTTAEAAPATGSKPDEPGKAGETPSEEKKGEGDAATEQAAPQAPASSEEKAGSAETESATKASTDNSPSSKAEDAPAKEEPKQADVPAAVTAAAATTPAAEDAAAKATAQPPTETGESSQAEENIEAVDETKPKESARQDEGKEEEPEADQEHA

Assays:
[1] = target: transmembrane protease, serine 11D (TMPRSS11D) expressed on HEK293 cells (human) (UniProt O60235); test: reverse transfection cell microarray (Retrogenix); HEK293 cells reverse transfected with expression vectors for one of 2505 human plasma membrane proteins; cells treated with 0.5 ug/ml rhOPG (Peprotech), 0.5 ug/ml anti-OPG, then Alexafluor647 anti-goat antibody; primary and secondary screens; only the binder purified
[2] = target: IL1-receptor accessory protein (IL-1RAcP) expressed on HEK293 cells (human) (UniProt Q9NPH3); test: as above
[3] = target: T1, RANKL (TNFSF11) expressed on HEK293 cells (human) (UniProt O14788); test: as above
T1 sequence: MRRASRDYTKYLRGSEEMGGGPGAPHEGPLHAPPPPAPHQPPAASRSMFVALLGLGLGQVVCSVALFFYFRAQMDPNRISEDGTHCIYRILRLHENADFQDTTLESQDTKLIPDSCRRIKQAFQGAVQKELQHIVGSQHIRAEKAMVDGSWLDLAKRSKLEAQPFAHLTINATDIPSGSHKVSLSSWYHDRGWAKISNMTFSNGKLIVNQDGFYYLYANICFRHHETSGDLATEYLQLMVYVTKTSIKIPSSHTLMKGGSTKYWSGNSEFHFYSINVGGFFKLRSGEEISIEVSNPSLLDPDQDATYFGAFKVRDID

[4] = target: T2, syndecan-1 (SDC-1) expressed on HEK293 cells (human) (UniProt P18827); test: as above
T2 sequence: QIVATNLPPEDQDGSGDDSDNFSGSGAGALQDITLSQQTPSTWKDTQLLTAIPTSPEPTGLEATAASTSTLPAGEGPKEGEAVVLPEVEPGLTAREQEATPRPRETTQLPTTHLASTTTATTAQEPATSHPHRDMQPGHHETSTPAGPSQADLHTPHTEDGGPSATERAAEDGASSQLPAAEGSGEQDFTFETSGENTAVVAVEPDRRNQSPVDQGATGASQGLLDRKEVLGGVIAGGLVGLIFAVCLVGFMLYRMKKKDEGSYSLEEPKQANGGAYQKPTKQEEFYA

[5] = target: Fas receptor expressed on HEK293 cells (human) (UniProt P25445); test: as above
[6] = target: growth associated protein 43 (GAP43) expressed in HEK293 cells (human) (UniProt P17677); test: as above
[7] = target: Fas receptor, endogenous in human pulmonary artery smooth muscle cells (human (endogenous in PASMC)) (UniProt P25445); test: co-IP; PASMCs stimulated with rhOPG (500 ng/ml) for 30 min at 37 C, lysed; anti-Fas antibody, ProteinG sepharose beads; blot with goat polyclonal anti-OPG; only the binder purified

Measured: binding

B1: recombinant human osteoprotegerin (rhOPG, Peprotech) (protein, UniProt O00300 22-401)
chain: ETFPPKYLHYDEETSHQLLCDKCPPGTYLKQHCTAKWKTVCAPCPDHYYTDSWHTSDECLYCSPVCKELQYVKQECNRTHNRVCECKEGRYLEIEFCLKHRSCPPGFGVVQAGTPERNTVCKRCPDGFFSNETSSKAPCRKHTNCSVFGLLLTQKGNATHDNICSGNSESTQKCGIDVTLCEEAFFRFAVPTKFTPNWLSVLVDNLPGTKVNAESVERIKRQHSSQEQTFQLLKLWKHQNKDQDIVKKIIQDIDLCENSVQRHIGHANLTFEQLRSLMESLPGKKVGAEDIEKTIKACKPSDQILKLLSLWRIKNGDQDTLKGLMHALKHSKTYHFPKTVTQSLKKTIRFLHSFTMYKLYQKLFLEMIGNQVQSVKISCL
binds: [1] | [2] | [3] | [4] | [5] | [6]

B2: recombinant human osteoprotegerin (rhOPG) of the co-immunoprecipitation and the cell assays (protein, UniProt O00300 22-401)
chain: ETFPPKYLHYDEETSHQLLCDKCPPGTYLKQHCTAKWKTVCAPCPDHYYTDSWHTSDECLYCSPVCKELQYVKQECNRTHNRVCECKEGRYLEIEFCLKHRSCPPGFGVVQAGTPERNTVCKRCPDGFFSNETSSKAPCRKHTNCSVFGLLLTQKGNATHDNICSGNSESTQKCGIDVTLCEEAFFRFAVPTKFTPNWLSVLVDNLPGTKVNAESVERIKRQHSSQEQTFQLLKLWKHQNKDQDIVKKIIQDIDLCENSVQRHIGHANLTFEQLRSLMESLPGKKVGAEDIEKTIKACKPSDQILKLLSLWRIKNGDQDTLKGLMHALKHSKTYHFPKTVTQSLKKTIRFLHSFTMYKLYQKLFLEMIGNQVQSVKISCL
binds: [7]
